Survivor count and T/C data for eleven molecules are collected here from PubChem BioAssay AID248 (DTP/NCI, 2004).

For the experiment, the system named is L1210 leukemia ip in BDF1 mice, survival T/C. The experiment is described as follows: NCI In Vivo Anticancer Drug Screen. Data for tumor model L1210 Leukemia (intraperitoneal) in B6D2F1 (BDF1) mice. The note with it: T/C endpoint: mean survival time, higher T/C = longer survival.
Where [1] appears, read: dose: 300.0 mg/kg/injection, schedule: Q01DX001 (ip), vehicle: other.
The mark [2] stands for this setting: dose: 100.0 mg/kg/injection, schedule: Q01DX009 (ip), vehicle: Klucel (hydroxypropylcellulose) (HPC).
The mark [3] stands for this setting: dose: 400.0 mg/kg/injection, schedule: Q04DX002 (ip), vehicle: Klucel (hydroxypropylcellulose) (HPC).

Molecules are shown by their SMILES. The list does not hold the whole screen: it gathers tests that were run many times, whatever their T/C, doses with no T/C, and many T/C values between a quarter and a half above the control. Further doses and runs are listed elsewhere. T/C is the treated group as % of the vehicle group. Some entries give survivors of the animals treated and no T/C: the source holds a T/C of zero for them, seemingly a mark for toxic or unscored doses. Some doses without a T/C left all or most animals alive at the check, yet need not have been tolerated: the source hardly ever lists a survival T/C far under the control, and the zero likely stands for such cases as well. Counts of survivors are from the toxicity check (mostly the fifth day) where no day follows; animals may have died later. Schedules are NCI's codes, taken here to give the interval after Q, in days (D) or hours (H), and the number of doses after X. Some molecules as drawn cover several salts, stereoisomers or complexes of the source; a dose is that of the sample tested. Where survival is the endpoint, the PubChem record calls one and a half times the control and up active, and a quarter to a half above the control has no call in these data; cut-offs in other NCI protocols can differ.

Regarding `Clc1ccc(-c2cc[s+]s2)cc1`, the survivor count is 6 of 6 (dose: 25.0 mg/kg/injection, schedule: Q01DX009 (ip), vehicle: water); 1 of 6 (dose: 100.0 mg/kg/injection, schedule: Q01DX009 (ip), vehicle: water); 2 of 6 (dose: 200.0 mg/kg/injection, schedule: Q04DX003 (ip), vehicle: water); 1 of 6 (dose: 400.0 mg/kg/injection, schedule: Q04DX003 (ip), vehicle: water).
As to `CC(=O)OC1CCC(NC(=O)N(CCF)N=O)CC1` (configuration not stated), where the note is “dose: 10.0 mg/kg/injection, schedule: Q01DX001 (ip), vehicle: other”, the T/C was 147 % of control. Moreover, the survivor count (dose: 60.0 mg/kg/injection, schedule: Q01DX001 (ip), vehicle: other) was 2 of 10; the survivor count (dose: 80.0 mg/kg/injection, schedule: Q01DX001 (ip), vehicle: other) is recorded as 2 of 10; the survivor count (dose: 133.0 mg/kg/injection, schedule: Q01DX001 (ip), vehicle: other) was 0 of 10; the survivor count (dose: 200.0 mg/kg/injection, schedule: Q01DX001 (ip), vehicle: other) is listed as 0 of 10; the survivor count under setting [1] is 0 of 10.
On to `CC(=O)Oc1c(C)c(C)c(O)c(C)c1C[P+](c1ccccc1)(c1ccccc1)c1ccccc1`, for which the survivor count by setting is: (dose: 100.0 mg/kg/injection, schedule: Q01DX009 (ip), vehicle: saline with Tween-80) 0 of 6; (dose: 200.0 mg/kg/injection, schedule: Q01DX009 (ip), vehicle: saline with Tween-80) 0 of 6; (dose: 400.0 mg/kg/injection, schedule: Q01DX009 (ip), vehicle: saline with Tween-80) 0 of 6.
Consider `CC(C)(CN=Cc1cccc(O)c1)N=Cc1cccc(O)c1`, for which, under “dose: 300.0 mg/kg/injection, schedule: Q01DX009 (ip), vehicle: DMSO”, the survivor count is recorded as 2 of 6.
`Nc1ncnc2c1ncn2C1OC(COS(N)(=O)=O)C(O)C1O` (configuration not stated): the survivor count is, setting by setting: (dose: 1.0 mg/kg/injection, schedule: Q01DX001 (ip), vehicle: saline) 0 of 6; (dose: 2.0 mg/kg/injection, schedule: Q01DX001 (ip), vehicle: saline) 0 of 6; (dose: 4.0 mg/kg/injection, schedule: Q01DX001 (ip), vehicle: saline) 0 of 6; (dose: 5.0 mg/kg/injection, schedule: Q01DX001 (ip), vehicle: saline) 0 of 6; (dose: 8.0 mg/kg/injection, schedule: Q01DX001 (ip), vehicle: saline) 0 of 6; (dose: 10.0 mg/kg/injection, schedule: Q01DX001 (ip), vehicle: saline) 0 of 6. Besides, the survivor count is, setting by setting: (dose: 20.0 mg/kg/injection, schedule: Q01DX001 (ip), vehicle: saline) 0 of 6; (dose: 40.0 mg/kg/injection, schedule: Q01DX001 (ip), vehicle: saline) 0 of 6; (dose: 75.0 mg/kg/injection, schedule: Q01DX001 (ip), vehicle: saline) 0 of 6; (dose: 80.0 mg/kg/injection, schedule: Q01DX001 (ip), vehicle: saline) 0 of 6; (dose: 150.0 mg/kg/injection, schedule: Q01DX001 (ip), vehicle: saline) 0 of 6; (dose: 300.0 mg/kg/injection, schedule: Q01DX001 (ip), vehicle: saline) 0 of 6.
Take `CN(C)C`: the survivor count is, setting by setting: (dose: 100.0 mg/kg/injection, schedule: Q01DX009 (ip), vehicle: saline) 6 of 6; (dose: 200.0 mg/kg/injection, schedule: Q01DX009 (ip), vehicle: saline) 6 of 6; (dose: 400.0 mg/kg/injection, schedule: Q04DX002 (ip), vehicle: saline) 1 of 3; (dose: 400.0 mg/kg/injection, schedule: Q04DX003 (ip), vehicle: saline) 0 of 6.
Take `NNc1ccccc1-c1nc(N)nc(N)n1`: the survivor count (dose: 75.0 mg/kg/injection, schedule: Q01DX001 (ip), vehicle: other) was 2 of 6; the survivor count (dose: 150.0 mg/kg/injection, schedule: Q01DX001 (ip), vehicle: other) is reported as 1 of 6; the survivor count under setting [1] is listed as 0 of 6.
Take `[Cl][Hg][c]1ccco1`: the survivor count is, setting by setting: (dose: 6.25 mg/kg/injection, schedule: Q01DX009 (ip), vehicle: Klucel (hydroxypropylcellulose) (HPC)) 3 of 6; (dose: 12.5 mg/kg/injection, schedule: Q01DX009 (ip), vehicle: Klucel (hydroxypropylcellulose) (HPC)) 0 of 6; (dose: 25.0 mg/kg/injection, schedule: Q01DX009 (ip), vehicle: Klucel (hydroxypropylcellulose) (HPC)) 0 of 6; (dose: 50.0 mg/kg/injection, schedule: Q01DX009 (ip), vehicle: Klucel (hydroxypropylcellulose) (HPC)) 0 of 6; under setting [2], 0 of 6; (dose: 100.0 mg/kg/injection, schedule: Q04DX002 (ip), vehicle: Klucel (hydroxypropylcellulose) (HPC)) 0 of 3. For the same molecule, the survivor count is 0 of 3 (dose: 200.0 mg/kg/injection, schedule: Q04DX002 (ip), vehicle: Klucel (hydroxypropylcellulose) (HPC)) and 0 of 3 under setting [3].
Turning to `CCCCCCCCCC(=O)N/N=C\c1cccc2ccccc12`, the survivor count by setting is: under setting [2], 6 of 6; (dose: 200.0 mg/kg/injection, schedule: Q01DX009 (ip), vehicle: Klucel (hydroxypropylcellulose) (HPC)) 6 of 6; (dose: 400.0 mg/kg/injection, schedule: Q01DX009 (ip), vehicle: Klucel (hydroxypropylcellulose) (HPC)) 6 of 6.
On to `Cc1ccc(NC(=O)COc2cc(Cl)c(Cl)cc2Cl)cc1[N+](=O)[O-]`, for which the survivor count reads like this: (dose: 150.0 mg/kg/injection, schedule: Q01DX009 (ip), vehicle: Klucel (hydroxypropylcellulose) (HPC)) 6 of 6; (dose: 300.0 mg/kg/injection, schedule: Q01DX009 (ip), vehicle: Klucel (hydroxypropylcellulose) (HPC)) 2 of 6.
For the molecule `O=C(Nc1cccc2ccccc12)Oc1ccc(Cl)cc1Cc1ccccc1`, the survivor count under setting [3] is reported as 3 of 3.
